# From PubChem BioAssay AID2685 (National Center for Advancing Translational Sciences (NCATS), 2010)
# This is one part of the list. These are further read-outs of the screen, such as a control signal, another cell line or another target. No call is given for them. Most of these compounds were active or inconclusive in the main read-out, so they are no random draw. The note in brackets gives the kind of curve behind each potency; many fits are weak.
# Assay: qHTS Assay for Lipid Storage Modulators in Drosophila S3 Cells;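 on cell number change: cells counted by Cell Tracker Red CMTPX staining in the red channel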
# Details: BODIPY lipid droplet fluorescence, 18-24 h; for cell number change: measured here: cell count max response, cells fed with added oleic acid
# Procedure, shortened: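 Drosophila S3 cells loaded with oleic acid (400 uM, as added) and compounds at several concentrations; lipid droplets imaged by 488-nm laser-scanning cytometry, 500–530 nm intensity and object ratio to cell channel. Percent activity normalized to 20 uM Triacsin C.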
# [1] = measured here: lipid fluorescence (Fed channel) AC50, cells fed with added oleic acid
# [2] = measured here: cell number channel AC50, cells fed with added oleic acid
Structure (SMILES),cell number change,AC50 [1],AC50 [2]
CC(=O)N[C@@H](C)C(=O)OC(C)C(=O)Nc1cccc([N+](=O)[O-])c1 (stereo not given in full),4.88%,–,–
CC(C)(C)N=C1SCC(C)(/C=N/O)S1 (stereo not given),-21.8%,"0.206 µM [falling, full curve, poor fit]",–
Oc1ccc(C[C@H]2CNCCN2CC2CCCCC2)cc1,22.1%,"29.1 µM [rising, single point]",–
Cc1cc(NC(=O)C(C)SCC(=O)OCC(=O)Nc2c(C)cccc2C(C)C)no1 (stereo not given),4.96%,"3.66 µM [falling, partial curve, poor fit]",–
COCCNC(=S)N1CCN(c2nc(-c3ccc(Cl)cc3)cs2)CC1,10.7%,"29.1 µM [falling, single point]",–
CCOc1ccc(S(=O)(=O)N2CCCC(C(=O)NCCN3CCOCC3)C2)cc1Cl (stereo not given),1.32%,–,–
S=C(NCc1ccc(Cl)cc1Cl)Nc1ccccc1,–,"29.1 µM [falling, single point]","0.517 µM [rising, single point]"
Cc1ccc(NC(=S)NCc2cccn2C)cc1,2.37%,–,–
O=C1CCCN1CCC1CCN(C(=O)Nc2ccccc2)CC1,–,"6.51 µM [falling, single point]",–
Cc1ccc(C(=O)N/C(=C\c2ccc(-c3ccc(Cl)cc3)o2)C(=O)NCCCN(C)C)cc1,-24.5%,"1.64 µM [falling, partial curve, poor fit]","2.06 µM [falling, full curve, poor fit]"
O=S(=O)(NCCCN1CCOCC1)c1ccc(F)c(Cl)c1,-46.7%,"0.517 µM [falling, full curve]","0.651 µM [falling, full curve]"
COC(=O)c1cc(NC(=O)C2CC(=O)NC(=NCc3ccc(OC)cc3)S2)cc(C(=O)OC)c1 (stereo not given),5.13%,"29.1 µM [rising, single point]",–
Cc1ccc(C)c2[nH]c(=O)c(CCNC(=O)c3cccs3)cc12,25.7%,"6.51 µM [rising, single point]","0.0326 µM [rising, full curve, poor fit]"
CCOc1ccc(/C(C)=N\NC(=O)Cc2ccccc2)cc1,15.1%,"29.1 µM [falling, single point]",–
Cc1nnsc1C(=O)NC1CCCc2c1cnn2-c1ccc(C(C)(C)C)cc1 (stereo not given),-68.3%,"4.61 µM [falling, full curve]","7.31 µM [falling, partial curve]"
O=C(OCc1c(F)cccc1Cl)c1cccnc1Cl,15.4%,–,"0.82 µM [rising, single point]"
S=c1[nH]nc(C2COc3ccccc3O2)o1 (stereo not given),27.1%,–,"3.26 µM [rising, full curve, poor fit]"
COc1ccc(CCNC(=O)CSc2ccc(-c3cccs3)nn2)cc1OC,-19.4%,"23.1 µM [falling, single point]",–
CCOc1ccccc1OCC(=O)OCC(=O)Nc1ncc(Cl)cc1Cl,10.3%,–,–
CN1CCN(Cc2ccc(-c3ccc(Cl)cc3)o2)CC1,-1.36%,"25.9 µM [falling, partial curve]",–

# Copied from the list.
# cell number change, Cc1nnsc1C(=O)NC1CCCc2c1cnn2-c1ccc(C(C)(C)C)cc1 (stereo not given) is entered as -68.3%
# AC50 [1], Cc1ccc(C(=O)N/C(=C\c2ccc(-c3ccc(Cl)cc3)o2)C(=O)NCCCN(C)C)cc1 is entered as 1.64 µM [falling, partial curve, poor fit]
# cell number change, COc1ccc(CCNC(=O)CSc2ccc(-c3cccs3)nn2)cc1OC is entered as -19.4%
# AC50 [1], O=C1CCCN1CCC1CCN(C(=O)Nc2ccccc2)CC1 is entered as 6.51 µM [falling, single point]

# The listing continues:

Structure (SMILES),cell number change,AC50 [1],AC50 [2]
Cc1c(NS(C)(=O)=O)c(=O)n(-c2ccccc2)n1C,-39.2%,"29.1 µM [falling, single point]","16.4 µM [falling, single point]"
O=C(c1cc(C(=O)N2CCCC2)cc([N+](=O)[O-])c1)N1CCCC1,9.21%,"18.4 µM [falling, single point]",–
CCOC(=O)c1ccc(S(=O)(=O)N2CCN(C)CC2)cc1,43.2%,"18.4 µM [rising, single point]","20.6 µM [rising, single point]"
N#Cc1ccc(OCCOCCNC2CCCC2)cc1,9.2%,–,–
Cc1ccc(C)c(N(CC(=O)NC2CCCCC2)C(=O)CNC(=O)c2ccco2)c1,22.1%,–,–
CC(=O)Nc1cccc(Nc2nc(-c3cccs3)nc3ccccc23)c1,20.2%,"5.8 µM [falling, full curve]",–
CN(C(=O)c1ccc(Oc2ccc([N+](=O)[O-])cc2)cc1)C1CCCCC1,-48.3%,–,"18.4 µM [falling, single point]"
C=CCOc1ccc(C(c2c(C(=O)O)[nH]c3ccccc23)c2c(C(=O)O)[nH]c3ccccc23)cc1,-41.4%,–,"0.206 µM [falling, partial curve]"
O=[N+]([O-])c1cccc(NN=Nc2ccccc2)c1,-33.3%,–,"29.1 µM [falling, single point]"
CCOC(=O)c1c(C)[nH]c(C(=O)Nc2ccc(C)c(Cl)c2)c1C,-16.8%,"1.64 µM [rising, partial curve]","1.46 µM [rising, partial curve]"
Cc1ccccc1/C=N/NC(=O)c1ccc(-n2cnnn2)cc1,43.1%,"1.03 µM [rising, full curve]","18.4 µM [rising, single point]"
O=C(COC(=O)C1CCCN1C(=O)c1cccs1)c1ccccc1 (stereo not given),-4.83%,"0.651 µM [rising, partial curve, poor fit]",–
Cc1ccc(NC(=O)CN(c2ccc(C)cc2)S(=O)(=O)c2cccc3nonc23)cc1,-0.119%,"1.16 µM [rising, full curve]",–
COc1cccc(CNC(=O)c2cc(C)nc3ccccc23)c1,14.2%,"16.4 µM [rising, single point]",–
CCCn1c(SCC(=O)NC2CCCC2)nnc1C(C)C,23.8%,"11.6 µM [rising, partial curve]",–
CC1(C)C2CCC1(CS(=O)(=O)NCCc1c[nH]c3ccccc13)C(=O)C2 (stereo not given),4.76%,"29.1 µM [rising, partial curve]",–
CCOC(=O)C1CCN(Cc2cc(=O)n3c(-c4ccccc4)csc3n2)CC1,-24.1%,"29.1 µM [falling, single point]",–
Cc1ccc(Nc2nnc(SCc3cc(=O)n4cc(C)ccc4n3)s2)cc1,17.7%,"0.116 µM [rising, full curve]","0.82 µM [rising, partial curve]"
O=C(NNC(=O)C12CC3CC(CC(C3)C1)C2)c1ccccn1,-18.6%,"29.1 µM [falling, single point]",–
O=C(CSc1nnc(-c2cccnc2)n1-c1ccccc1)Nc1ccccn1,10.5%,"2.06 µM [rising, partial curve]",–

Structure (SMILES),cell number change,AC50 [1],AC50 [2]
CCOc1ccccc1NC(=O)C(OC(=O)c1cnccn1)c1ccccc1 (stereo not given),–,"0.58 µM [rising, single point]",–
O=C(N=C1SC2CS(=O)(=O)CC2N1c1cccc(Cl)c1)C1CCCO1 (stereo not given),11%,–,–
O=C1c2cccc3cccc(c23)C(=O)N1c1ccccn1,18%,"0.164 µM [rising, full curve, poor fit]",–
Cc1ccc(C)c(N2CCN(CCCNC(=O)Cn3cc4c(n3)CCC(C)C4)CC2)c1 (stereo not given),-44%,"29.1 µM [falling, single point]","32.6 µM [falling, single point]"
CC(NC(=O)Nc1cccc([N+](=O)[O-])c1)c1ccc2c(c1)OCO2 (stereo not given),-51.5%,–,"29.1 µM [falling, single point]"
O=C1CC(c2cccnc2)c2cc3c(cc2N1)OCO3 (stereo not given),1.42%,"0.082 µM [rising, full curve, poor fit]",–
CCC(C)C(=O)Nc1nc(C)c(-c2csc(Nc3cc(Cl)ccc3OC)n2)s1 (stereo not given),-29.6%,"5.17 µM [falling, full curve, poor fit]",–
COC(=O)C1CCCCN1C(=O)c1ccc2oc(Cc3ccccc3)nc2c1 (stereo not given),-13.9%,–,"0.461 µM [falling, full curve, poor fit]"
COc1ccc(C(C)=O)cc1CSc1ccc2c(c1)OCCO2,-27.8%,"7.31 µM [falling, single point]",–
Cc1ccc(OC(C)C)c(CN(CCO)CCO)c1,-3.33%,"1.03 µM [falling, full curve]",–
Cc1c(C(=O)N2CCOCC2)oc2ccc(S(=O)(=O)N3CCCCCC3)cc12,-11.2%,"25.9 µM [rising, partial curve]",–
Cc1ccc(NC(=O)CC(=O)Nc2ccc(C)cc2C)c(C)c1,37.8%,"6.51 µM [rising, single point]",–
CCc1cccc(NC2c3ccccc3C(=O)N2c2cccnc2)c1 (stereo not given),30.4%,"2.91 µM [rising, partial curve]","7.31 µM [rising, partial curve]"
COc1ccc(OC)c(/C=C2\SC(N3CCCCC3)=NC2=O)c1,23.4%,"0.58 µM [rising, single point]",–
COc1cnn(-c2ccccc2)c(=O)c1N(C)C,5%,"0.13 µM [falling, full curve, poor fit]",–
O=C(COc1ccc(Br)cc1)Nc1nnc(C2CC2)s1,4.15%,"0.0146 µM [rising, full curve, poor fit]",–
Cc1cccc(N2C(=O)N3[C@H](c4ccc(F)cc4)[C@@H]4C(=O)N(C5CCCCC5)C(=O)[C@@H]4[C@]3(Cc3ccc(Cl)cc3)C2=O)c1,–,"29.1 µM [falling, single point]",–
CCc1cccc(NS(=O)(=O)c2ccc3c(c2)NC(=O)CC(=O)N3)c1,1.91%,"0.13 µM [falling, full curve, poor fit]",–
Oc1cccc(Nc2ncnc3c2oc2ccccc23)c1,-20.8%,–,–
CCOC(=O)c1ccc(NC(=S)N2CCSC2c2ccc(Cl)cc2)cc1 (stereo not given),-7.57%,"1.03 µM [rising, full curve]",–
